Some of the results follow.

By UniProt entry, the sequences of proteins in these tests, tags left out. Where a name states a change or a piece, a line headed by the entry shows the natural chain unless it says otherwise.
UniProt O60930: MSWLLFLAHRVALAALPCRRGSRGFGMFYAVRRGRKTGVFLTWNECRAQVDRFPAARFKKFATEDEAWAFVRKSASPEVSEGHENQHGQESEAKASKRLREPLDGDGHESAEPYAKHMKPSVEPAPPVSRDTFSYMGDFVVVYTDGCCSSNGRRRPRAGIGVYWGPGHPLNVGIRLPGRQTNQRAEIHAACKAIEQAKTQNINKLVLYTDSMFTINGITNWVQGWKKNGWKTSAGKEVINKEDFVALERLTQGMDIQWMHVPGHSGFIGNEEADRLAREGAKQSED
UniProt Q96E17: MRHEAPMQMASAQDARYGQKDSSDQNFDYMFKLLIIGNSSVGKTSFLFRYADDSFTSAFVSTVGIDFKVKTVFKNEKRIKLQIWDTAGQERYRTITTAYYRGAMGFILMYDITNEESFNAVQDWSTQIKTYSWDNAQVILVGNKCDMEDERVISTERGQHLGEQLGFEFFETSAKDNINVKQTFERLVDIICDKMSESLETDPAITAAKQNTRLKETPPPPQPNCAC
UniProt Q15293: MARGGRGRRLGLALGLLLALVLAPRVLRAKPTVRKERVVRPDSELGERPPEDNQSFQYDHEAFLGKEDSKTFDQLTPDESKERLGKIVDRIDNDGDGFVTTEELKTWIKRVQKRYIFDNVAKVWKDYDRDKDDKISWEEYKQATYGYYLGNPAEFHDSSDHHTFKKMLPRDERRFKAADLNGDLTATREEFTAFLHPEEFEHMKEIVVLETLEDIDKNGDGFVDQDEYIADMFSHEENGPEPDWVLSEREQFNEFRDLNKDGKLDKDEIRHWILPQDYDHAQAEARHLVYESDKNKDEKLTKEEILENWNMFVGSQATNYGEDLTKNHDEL
UniProt Q9BTD8: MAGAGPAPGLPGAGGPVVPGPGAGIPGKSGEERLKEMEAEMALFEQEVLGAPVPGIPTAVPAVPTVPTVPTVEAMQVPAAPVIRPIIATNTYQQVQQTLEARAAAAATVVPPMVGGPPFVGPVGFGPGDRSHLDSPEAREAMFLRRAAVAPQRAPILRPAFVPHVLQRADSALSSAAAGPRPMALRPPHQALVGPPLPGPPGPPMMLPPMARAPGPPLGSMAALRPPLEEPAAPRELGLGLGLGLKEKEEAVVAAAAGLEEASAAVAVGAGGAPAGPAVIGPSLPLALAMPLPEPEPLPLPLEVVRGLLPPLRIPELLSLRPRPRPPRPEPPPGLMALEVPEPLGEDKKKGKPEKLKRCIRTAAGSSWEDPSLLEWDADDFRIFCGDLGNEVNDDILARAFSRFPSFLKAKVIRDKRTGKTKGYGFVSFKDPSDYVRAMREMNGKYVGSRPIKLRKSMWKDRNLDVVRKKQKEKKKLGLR
UniProt Q9UKM9: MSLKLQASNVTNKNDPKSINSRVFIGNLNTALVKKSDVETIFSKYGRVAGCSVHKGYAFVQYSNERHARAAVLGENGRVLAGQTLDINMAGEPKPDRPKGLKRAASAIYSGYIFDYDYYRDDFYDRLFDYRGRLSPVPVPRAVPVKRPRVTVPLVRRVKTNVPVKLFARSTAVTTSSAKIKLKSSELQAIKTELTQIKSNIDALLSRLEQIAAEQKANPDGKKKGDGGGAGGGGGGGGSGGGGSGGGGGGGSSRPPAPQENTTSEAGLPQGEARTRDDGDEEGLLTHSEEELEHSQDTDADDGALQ
UniProt Q9Y3E5: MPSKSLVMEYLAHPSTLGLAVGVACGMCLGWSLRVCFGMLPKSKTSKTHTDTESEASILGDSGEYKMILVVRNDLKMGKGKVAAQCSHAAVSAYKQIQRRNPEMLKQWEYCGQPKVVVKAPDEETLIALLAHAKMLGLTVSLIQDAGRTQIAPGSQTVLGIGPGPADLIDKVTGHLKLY
UniProt Q14498: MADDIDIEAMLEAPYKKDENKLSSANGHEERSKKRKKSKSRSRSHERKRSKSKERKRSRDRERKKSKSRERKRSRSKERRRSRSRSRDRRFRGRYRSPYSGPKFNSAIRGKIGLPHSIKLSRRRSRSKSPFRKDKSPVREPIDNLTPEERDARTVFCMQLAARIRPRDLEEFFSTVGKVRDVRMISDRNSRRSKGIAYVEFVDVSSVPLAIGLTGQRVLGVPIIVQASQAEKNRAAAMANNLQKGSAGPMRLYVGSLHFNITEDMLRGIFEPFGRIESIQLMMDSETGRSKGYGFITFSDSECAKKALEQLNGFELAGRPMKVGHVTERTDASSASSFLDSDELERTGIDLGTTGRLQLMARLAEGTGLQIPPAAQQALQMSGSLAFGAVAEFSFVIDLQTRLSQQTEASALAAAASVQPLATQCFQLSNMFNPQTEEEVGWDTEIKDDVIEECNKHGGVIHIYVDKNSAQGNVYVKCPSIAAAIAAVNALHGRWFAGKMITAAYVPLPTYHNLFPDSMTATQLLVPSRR
UniProt Q8IXI2: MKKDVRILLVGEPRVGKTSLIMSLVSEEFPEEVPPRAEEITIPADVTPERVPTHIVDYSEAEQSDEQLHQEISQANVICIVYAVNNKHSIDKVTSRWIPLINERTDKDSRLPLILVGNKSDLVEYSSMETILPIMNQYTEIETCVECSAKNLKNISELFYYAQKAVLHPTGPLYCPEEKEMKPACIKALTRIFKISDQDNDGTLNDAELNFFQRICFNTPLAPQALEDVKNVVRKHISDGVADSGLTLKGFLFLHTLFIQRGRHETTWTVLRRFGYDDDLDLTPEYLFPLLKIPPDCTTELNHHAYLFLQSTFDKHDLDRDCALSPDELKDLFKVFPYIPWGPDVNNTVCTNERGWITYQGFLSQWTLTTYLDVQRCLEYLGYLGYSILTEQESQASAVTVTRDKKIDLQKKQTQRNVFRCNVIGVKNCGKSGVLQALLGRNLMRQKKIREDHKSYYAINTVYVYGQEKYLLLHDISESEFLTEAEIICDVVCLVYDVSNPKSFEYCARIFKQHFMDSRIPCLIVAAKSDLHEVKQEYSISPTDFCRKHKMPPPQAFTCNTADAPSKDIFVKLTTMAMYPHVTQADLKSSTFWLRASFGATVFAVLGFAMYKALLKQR
UniProt Q92930: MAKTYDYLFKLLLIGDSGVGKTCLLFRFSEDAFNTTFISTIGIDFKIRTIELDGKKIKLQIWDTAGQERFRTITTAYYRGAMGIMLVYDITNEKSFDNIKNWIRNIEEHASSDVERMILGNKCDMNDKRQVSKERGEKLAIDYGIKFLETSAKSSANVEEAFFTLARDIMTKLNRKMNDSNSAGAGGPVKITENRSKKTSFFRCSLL
UniProt P61006: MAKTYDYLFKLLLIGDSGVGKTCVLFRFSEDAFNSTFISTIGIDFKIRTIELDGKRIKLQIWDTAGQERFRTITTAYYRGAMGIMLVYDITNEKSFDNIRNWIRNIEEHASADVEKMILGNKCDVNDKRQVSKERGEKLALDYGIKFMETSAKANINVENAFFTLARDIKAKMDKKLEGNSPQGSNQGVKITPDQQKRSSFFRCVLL
UniProt Q9NX57: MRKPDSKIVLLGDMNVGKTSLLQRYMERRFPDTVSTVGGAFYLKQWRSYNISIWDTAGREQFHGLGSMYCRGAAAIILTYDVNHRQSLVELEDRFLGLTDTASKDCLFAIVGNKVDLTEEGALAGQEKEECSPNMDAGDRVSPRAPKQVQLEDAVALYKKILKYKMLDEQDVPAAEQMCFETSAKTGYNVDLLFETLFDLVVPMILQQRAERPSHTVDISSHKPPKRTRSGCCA
UniProt O75884: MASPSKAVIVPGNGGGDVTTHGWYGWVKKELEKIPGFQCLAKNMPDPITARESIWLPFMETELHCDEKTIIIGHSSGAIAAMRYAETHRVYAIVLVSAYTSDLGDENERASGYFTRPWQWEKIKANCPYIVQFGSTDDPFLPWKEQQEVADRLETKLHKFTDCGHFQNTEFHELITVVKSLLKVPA
UniProt Q8TEU7: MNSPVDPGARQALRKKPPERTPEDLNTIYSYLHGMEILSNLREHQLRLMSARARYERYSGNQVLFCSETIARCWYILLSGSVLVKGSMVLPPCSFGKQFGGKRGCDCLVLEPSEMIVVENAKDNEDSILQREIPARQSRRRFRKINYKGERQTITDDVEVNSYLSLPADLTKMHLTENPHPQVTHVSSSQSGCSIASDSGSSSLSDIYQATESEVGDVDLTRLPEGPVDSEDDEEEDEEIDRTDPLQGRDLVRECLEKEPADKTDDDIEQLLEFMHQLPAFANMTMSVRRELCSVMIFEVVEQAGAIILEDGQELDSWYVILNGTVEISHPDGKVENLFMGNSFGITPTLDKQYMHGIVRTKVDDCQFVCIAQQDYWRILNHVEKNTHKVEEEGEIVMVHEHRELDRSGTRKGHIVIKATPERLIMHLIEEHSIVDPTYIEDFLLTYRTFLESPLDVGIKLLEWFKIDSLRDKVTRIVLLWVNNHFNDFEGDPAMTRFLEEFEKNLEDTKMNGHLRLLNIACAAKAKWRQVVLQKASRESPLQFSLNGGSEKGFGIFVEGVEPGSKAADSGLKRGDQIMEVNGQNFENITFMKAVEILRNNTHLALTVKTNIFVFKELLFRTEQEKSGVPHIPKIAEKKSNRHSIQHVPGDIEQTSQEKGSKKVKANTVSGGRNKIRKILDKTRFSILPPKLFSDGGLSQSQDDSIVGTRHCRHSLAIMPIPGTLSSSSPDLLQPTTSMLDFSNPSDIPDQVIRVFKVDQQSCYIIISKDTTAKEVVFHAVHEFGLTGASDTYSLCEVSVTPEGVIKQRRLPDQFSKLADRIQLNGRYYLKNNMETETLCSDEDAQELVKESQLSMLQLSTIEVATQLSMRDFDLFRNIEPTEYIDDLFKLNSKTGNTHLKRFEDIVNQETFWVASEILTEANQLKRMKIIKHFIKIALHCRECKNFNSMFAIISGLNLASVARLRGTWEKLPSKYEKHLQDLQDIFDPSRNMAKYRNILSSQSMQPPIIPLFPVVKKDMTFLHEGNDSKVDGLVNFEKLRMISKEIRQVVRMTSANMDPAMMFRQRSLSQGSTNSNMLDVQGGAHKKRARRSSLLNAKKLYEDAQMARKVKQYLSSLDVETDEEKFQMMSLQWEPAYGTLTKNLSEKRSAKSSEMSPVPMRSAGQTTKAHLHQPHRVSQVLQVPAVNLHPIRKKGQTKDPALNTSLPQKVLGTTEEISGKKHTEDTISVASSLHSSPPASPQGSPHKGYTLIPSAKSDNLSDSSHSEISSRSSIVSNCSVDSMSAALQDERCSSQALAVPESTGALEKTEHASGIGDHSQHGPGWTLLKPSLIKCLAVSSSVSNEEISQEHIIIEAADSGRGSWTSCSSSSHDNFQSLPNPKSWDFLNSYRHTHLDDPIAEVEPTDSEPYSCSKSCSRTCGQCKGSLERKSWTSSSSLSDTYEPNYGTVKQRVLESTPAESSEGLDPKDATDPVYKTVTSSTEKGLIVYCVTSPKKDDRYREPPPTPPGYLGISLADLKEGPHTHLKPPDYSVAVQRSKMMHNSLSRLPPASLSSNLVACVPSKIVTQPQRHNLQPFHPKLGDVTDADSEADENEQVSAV
UniProt Q9H974: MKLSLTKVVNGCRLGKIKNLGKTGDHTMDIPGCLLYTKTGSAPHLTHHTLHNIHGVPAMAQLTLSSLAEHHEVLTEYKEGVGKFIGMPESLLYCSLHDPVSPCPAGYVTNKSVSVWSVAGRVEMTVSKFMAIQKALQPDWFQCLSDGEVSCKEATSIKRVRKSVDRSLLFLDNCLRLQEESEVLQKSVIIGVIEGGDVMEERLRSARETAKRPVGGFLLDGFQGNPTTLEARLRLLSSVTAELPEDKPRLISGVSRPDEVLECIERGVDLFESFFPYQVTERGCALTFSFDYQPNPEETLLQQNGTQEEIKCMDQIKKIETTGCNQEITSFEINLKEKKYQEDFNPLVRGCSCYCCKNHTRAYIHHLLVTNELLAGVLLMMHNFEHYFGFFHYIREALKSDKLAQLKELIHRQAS
UniProt Q2TAL8: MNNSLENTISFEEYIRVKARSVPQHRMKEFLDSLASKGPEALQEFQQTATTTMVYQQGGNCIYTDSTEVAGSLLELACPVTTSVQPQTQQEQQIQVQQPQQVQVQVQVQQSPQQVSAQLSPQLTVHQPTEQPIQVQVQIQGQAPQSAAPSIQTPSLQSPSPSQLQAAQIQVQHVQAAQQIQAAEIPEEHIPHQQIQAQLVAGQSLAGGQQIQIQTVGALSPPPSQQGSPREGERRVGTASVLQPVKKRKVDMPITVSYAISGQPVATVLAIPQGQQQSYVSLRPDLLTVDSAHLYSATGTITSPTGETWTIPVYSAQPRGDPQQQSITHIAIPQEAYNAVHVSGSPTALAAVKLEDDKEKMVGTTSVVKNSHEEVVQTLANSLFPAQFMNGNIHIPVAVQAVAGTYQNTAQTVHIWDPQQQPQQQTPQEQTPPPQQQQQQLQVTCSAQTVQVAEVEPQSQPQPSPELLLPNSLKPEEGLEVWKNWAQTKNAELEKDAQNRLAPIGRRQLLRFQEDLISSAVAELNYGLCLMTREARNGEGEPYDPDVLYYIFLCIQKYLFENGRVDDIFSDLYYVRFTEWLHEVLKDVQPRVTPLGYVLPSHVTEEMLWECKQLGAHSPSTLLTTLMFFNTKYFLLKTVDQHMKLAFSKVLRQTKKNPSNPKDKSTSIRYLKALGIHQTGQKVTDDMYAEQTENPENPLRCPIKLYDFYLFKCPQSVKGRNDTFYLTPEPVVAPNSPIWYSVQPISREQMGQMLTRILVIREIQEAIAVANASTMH

Compound in the test: COc1ccc(Cn2ccc3cc(C)c(C(=O)NO)cc32)cc1
Kind of test: dose-dependent thermal stabilisation call (2D-TPP, DLPTP, 10% FDR) (binary (1 = stabilised)); higher = stabilised by the compound. Particulars: system: HL-60 intact cells; concentration range 0.04-10 µM. How it is done:
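2D thermal proteome profiling in intact HL-60 cells treated with BRD-3811 (0, 0.04, 0.29, 2, 10 uM) for 90 min at 37 C, then heated 3 min at one of 12 temperatures (42-63.9 C). Soluble protein was quantified by TMT10 MS. The value is the DLPTP call of the paper: dose-dependent thermal stabilisation over all temperatures at 10% FDR (F-test of a dose-response against a flat model); one experiment, one call per tested protein.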
Take RAB27A (UniProt P51159): the “dose-dependent thermal stabilisation call” value was inactive: 0. Next, RALBP1 (UniProt Q15311): inactive: 0. Under RBM17 (UniProt Q96I25) stands inactive: 0; under PYGL (UniProt P06737), inactive: 0; under RAP1GDS1 (UniProt P52306), inactive: 0. For the target RNASEH1 (UniProt O60930), the “dose-dependent thermal stabilisation call” value is inactive: 0. RAB3C (UniProt Q96E17): the “dose-dependent thermal stabilisation call” value is inactive: 0. With RNF219 (UniProt Q5W0B1), the “dose-dependent thermal stabilisation call” value is inactive: 0. Consider RCN1 (UniProt Q15293), for which the “dose-dependent thermal stabilisation call” value was inactive: 0. Under RBM42 (UniProt Q9BTD8) stands inactive: 0; under RFX7 (UniProt Q2KHR2), inactive: 0; under PYCRL (UniProt Q53H96), inactive: 0. With RALY (UniProt Q9UKM9), the “dose-dependent thermal stabilisation call” value was inactive: 0.

Regarding RBX1 (UniProt P62877), the “dose-dependent thermal stabilisation call” value is inactive: 0. Consider PTRH2 (UniProt Q9Y3E5), for which the “dose-dependent thermal stabilisation call” value was inactive: 0. Next, RBM39 (UniProt Q14498): inactive: 0. Take QPRT (UniProt Q15274): the “dose-dependent thermal stabilisation call” value was inactive: 0.

In the case of RNASEH2A (UniProt O75792), the “dose-dependent thermal stabilisation call” value was inactive: 0. With RIPK1 (UniProt Q13546), the “dose-dependent thermal stabilisation call” value was inactive: 0. Next, PUS7L (UniProt Q9H0K6): inactive: 0. On to RANBP3 (UniProt Q9H6Z4), for which the “dose-dependent thermal stabilisation call” value was inactive: 0. Regarding RNASET2 (UniProt O00584), the “dose-dependent thermal stabilisation call” value was inactive: 0. Regarding RHOT1 (UniProt Q8IXI2), the “dose-dependent thermal stabilisation call” value is inactive: 0. For RAB8B (UniProt Q92930), the “dose-dependent thermal stabilisation call” value was inactive: 0.

For the target RAB8A (UniProt P61006), the “dose-dependent thermal stabilisation call” value was inactive: 0. On to RFX5 (UniProt P48382), for which the “dose-dependent thermal stabilisation call” value is inactive: 0. Take RAB20 (UniProt Q9NX57): the “dose-dependent thermal stabilisation call” value is inactive: 0. On to RCC1 (UniProt P18754), for which the “dose-dependent thermal stabilisation call” value was inactive: 0.

Take PTTG1IP (UniProt P53801): the “dose-dependent thermal stabilisation call” value was inactive: 0.

Take RBBP9 (UniProt O75884): the “dose-dependent thermal stabilisation call” value is inactive: 0. As to RAPGEF6 (UniProt Q8TEU7), the “dose-dependent thermal stabilisation call” value was inactive: 0. As to QTRTD1 (UniProt Q9H974), the “dose-dependent thermal stabilisation call” value is inactive: 0. On to PYGB (UniProt P11216), for which the “dose-dependent thermal stabilisation call” value was inactive: 0. Turning to RELB (UniProt Q01201), the “dose-dependent thermal stabilisation call” value is inactive: 0. Turning to RNF220 (UniProt Q5VTB9), the “dose-dependent thermal stabilisation call” value was inactive: 0. QRICH1 (UniProt Q2TAL8): the “dose-dependent thermal stabilisation call” value is inactive: 0. Next, RAB28 (UniProt P51157): inactive: 0; REPS1 (UniProt Q96D71): inactive: 0. In the case of PURA (UniProt Q00577), the “dose-dependent thermal stabilisation call” value is inactive: 0. Under RANBP10 (UniProt Q6VN20) stands inactive: 0.
